# These are yes or no findings as the source states them, for the method shown. Some entries that bind do so weakly or less than the wild type.
# T1: Gid1 (S. cerevisiae) (UniProt P53076)
# T1 sequence: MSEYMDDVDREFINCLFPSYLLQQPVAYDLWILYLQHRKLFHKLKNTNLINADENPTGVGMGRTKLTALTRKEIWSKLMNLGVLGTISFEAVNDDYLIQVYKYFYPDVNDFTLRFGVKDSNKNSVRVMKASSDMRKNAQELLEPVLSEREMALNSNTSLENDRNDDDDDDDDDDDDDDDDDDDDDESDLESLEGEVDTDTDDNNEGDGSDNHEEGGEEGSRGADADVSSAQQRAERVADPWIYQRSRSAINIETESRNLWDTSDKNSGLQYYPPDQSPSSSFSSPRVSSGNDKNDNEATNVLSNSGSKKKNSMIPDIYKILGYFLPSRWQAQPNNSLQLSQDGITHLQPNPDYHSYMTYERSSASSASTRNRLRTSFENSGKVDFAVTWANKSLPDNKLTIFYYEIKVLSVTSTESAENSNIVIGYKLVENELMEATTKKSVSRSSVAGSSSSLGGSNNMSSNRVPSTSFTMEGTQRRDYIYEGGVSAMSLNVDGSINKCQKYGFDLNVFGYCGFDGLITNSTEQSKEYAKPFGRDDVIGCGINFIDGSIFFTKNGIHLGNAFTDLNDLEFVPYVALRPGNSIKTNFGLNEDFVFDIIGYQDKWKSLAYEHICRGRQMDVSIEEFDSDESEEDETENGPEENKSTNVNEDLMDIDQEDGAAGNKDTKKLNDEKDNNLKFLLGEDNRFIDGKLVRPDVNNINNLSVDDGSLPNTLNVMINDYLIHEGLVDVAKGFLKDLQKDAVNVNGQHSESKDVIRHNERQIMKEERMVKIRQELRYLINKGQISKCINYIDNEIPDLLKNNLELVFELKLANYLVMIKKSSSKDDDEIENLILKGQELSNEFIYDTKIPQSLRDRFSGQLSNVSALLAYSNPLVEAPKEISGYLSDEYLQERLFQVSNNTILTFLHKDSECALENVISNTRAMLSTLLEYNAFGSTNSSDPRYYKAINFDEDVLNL
# B1: Gid4 (protein, UniProt P38263 1-362)
# chain: MINNPKVDSVAEKPKAVTSKQSEQAASPEPTPAPPVSRNQYPITFNLTSTAPFHLHDRHRYLQEQDLYKCASRDSLSSLQQLAHTPNGSTRKKYIVEDQSPYSSENPVIVTSSYNHTVCTNYLRPRMQFTGYQISGYKRYQVTVNLKTVDLPKKDCTSLSPHLSGFLSIRGLTNQHPEISTYFEAYAVNHKELGFLSSSWKDEPVLNEFKATDQTDLEHWINFPSFRQLFLMSQKNGLNSTDDNGTTNAAKKLPPQQLPTTPSADAGNISRIFSQEKQFDNYLNERFIFMKWKEKFLVPDALLMEGVDGASYDGFYYIVHDQVTGNIQGFYYHQDAEKFQQLELVPSLKNKVESSDCSFEFA
# Target: T1, Gid1 (S. cerevisiae)
# Assay: cryo-EM structure
binder,measurement,value
B1,binding,binds

# — publication doi:10.1101/824060 (bioRxiv, 2019)
